According to the supplement of paper PMC10077471:
Whole data set: some 1,900 compounds, median “excess over highest single agent (ExcessHSA) synergy score, 6x6 matrix” near -83, cut for the lowest 2% near -370. The list shows a part of the results.

Tested on: NCI-H446
Assay: excess over highest single agent (ExcessHSA) synergy score, 6x6 matrix; higher = less synergy (more negative = stronger synergy)
Conditions: 72 h; CellTiter-Glo viability

Point of comparison: COc1cc2c(Oc3ccc4[nH]c(C)cc4c3F)ncnc2cc1OCCCN1CCCC1 + Cc1sc2c(c1C)C(c1ccc(Cl)cc1)=N[C@@H](CC(=O)OC(C)(C)C)c1nnc(C)n1-2 [NCGC00250412-19], “excess over highest single agent” value -196. Against it:
- C=CC(=O)Nc1cccc(Oc2nc(Nc3ccc(N4CCN(C)CC4)cc3OC)ncc2Cl)c1 + Cc1sc2c(c1C)C(c1ccc(Cl)cc1)=N[C@@H](CC(=O)OC(C)(C)C)c1nnc(C)n1-2 [NCGC00250412-19] — lower, -270
- NNc1nncc2ccccc12 + Cc1sc2c(c1C)C(c1ccc(Cl)cc1)=N[C@@H](CC(=O)OC(C)(C)C)c1nnc(C)n1-2 [NCGC00250412-19] — higher, -4.09
- CC(=O)OCC(CCn1cnc2cnc(N)nc21)COC(C)=O + Cc1sc2c(c1C)C(c1ccc(Cl)cc1)=N[C@@H](CC(=O)OC(C)(C)C)c1nnc(C)n1-2 [NCGC00250412-19] — higher, -148
- O=c1[nH]c2ccccc2n1C1CCN(Cc2ccc(-c3[nH]c4cc5ncnc5cc4nc3-c3ccccc3)cc2)CC1 + Cc1sc2c(c1C)C(c1ccc(Cl)cc1)=N[C@@H](CC(=O)OC(C)(C)C)c1nnc(C)n1-2 [NCGC00250412-19] — higher, 42.7
- C[C@@H]1CCN(C(=O)CC#N)C[C@@H]1N(C)c1ncnc2[nH]ccc12 + Cc1sc2c(c1C)C(c1ccc(Cl)cc1)=N[C@@H](CC(=O)OC(C)(C)C)c1nnc(C)n1-2 [NCGC00250412-19] — higher, 169
- O=c1[nH]c(=O)n(C2CCCO2)cc1F (centres undefined) + Cc1sc2c(c1C)C(c1ccc(Cl)cc1)=N[C@@H](CC(=O)OC(C)(C)C)c1nnc(C)n1-2 [NCGC00250412-19] — higher, 144
- CCC(C)N(C)C(=O)c1cc2ccccc2c(-c2ccccc2Cl)n1 (centres undefined) + Cc1sc2c(c1C)C(c1ccc(Cl)cc1)=N[C@@H](CC(=O)OC(C)(C)C)c1nnc(C)n1-2 [NCGC00250412-19] — higher, -144
- CC(C=CC(=O)NO)=C[C@@H](C)C(=O)c1ccc(N(C)C)cc1 + Cc1sc2c(c1C)C(c1ccc(Cl)cc1)=N[C@@H](CC(=O)OC(C)(C)C)c1nnc(C)n1-2 [NCGC00250412-19] — higher, -187
- COc1ccc([C@]2(C#N)CC[C@@H](C(=O)O)CC2)cc1OC1CCCC1 + Cc1sc2c(c1C)C(c1ccc(Cl)cc1)=N[C@@H](CC(=O)OC(C)(C)C)c1nnc(C)n1-2 [NCGC00250412-19] — higher, 151
- COCC[n+]1c2c(n(Cc3cnccn3)c1C)C(=O)c1ccccc1C2=O + Cc1sc2c(c1C)C(c1ccc(Cl)cc1)=N[C@@H](CC(=O)OC(C)(C)C)c1nnc(C)n1-2 [NCGC00250412-19] — lower, -336
- C[C@H]1C[C@@H]2[C@H]([C@@H](O)C[C@@]3(C)[C@H]2CC[C@]3(O)C(=O)CO)[C@@]2(C)C=CC(=O)C=C12 + Cc1sc2c(c1C)C(c1ccc(Cl)cc1)=N[C@@H](CC(=O)OC(C)(C)C)c1nnc(C)n1-2 [NCGC00250412-19] — higher, 86.8
- CCCNCC(O)COc1ccccc1C(=O)CCc1ccccc1 (centres undefined) + Cc1sc2c(c1C)C(c1ccc(Cl)cc1)=N[C@@H](CC(=O)OC(C)(C)C)c1nnc(C)n1-2 [NCGC00250412-19] — lower, -355
- COc1cc([C@@H]2c3cc4c(cc3[C@@H](O[C@@H]3O[C@@H]5CO[C@@H](C)O[C@H]5[C@H](O)[C@H]3O)[C@H]3COC(=O)[C@H]23)OCO4)cc(OC)c1O + Cc1sc2c(c1C)C(c1ccc(Cl)cc1)=N[C@@H](CC(=O)OC(C)(C)C)c1nnc(C)n1-2 [NCGC00250412-19] — higher, 51.1
- COc1ccccc1OCC(O)CN1CCN(CC(=O)Nc2c(C)cccc2C)CC1 (centres undefined) + Cc1sc2c(c1C)C(c1ccc(Cl)cc1)=N[C@@H](CC(=O)OC(C)(C)C)c1nnc(C)n1-2 [NCGC00250412-19] — higher, -107
- COc1nccc(-c2c(-c3ccc(F)cc3)ncn2C2CCNCC2)n1 + Cc1sc2c(c1C)C(c1ccc(Cl)cc1)=N[C@@H](CC(=O)OC(C)(C)C)c1nnc(C)n1-2 [NCGC00250412-19] — higher, -55.9
- CN(C)c1nc(N(C)C)nc(N(C)C)n1 + Cc1sc2c(c1C)C(c1ccc(Cl)cc1)=N[C@@H](CC(=O)OC(C)(C)C)c1nnc(C)n1-2 [NCGC00250412-19] — higher, -40.3
- COc1cc(N2CCC(C(N)=O)CC2)ccc1Nc1nc(N)c(Cl)c(Nc2ccccc2S(=O)(=O)C(C)C)n1 + Cc1sc2c(c1C)C(c1ccc(Cl)cc1)=N[C@@H](CC(=O)OC(C)(C)C)c1nnc(C)n1-2 [NCGC00250412-19] — higher, 223
- COc1cc2c(cc1-c1c(C)noc1C)ncc1[nH]c(=O)n([C@H](C)c3ccccn3)c12 + Cc1sc2c(c1C)C(c1ccc(Cl)cc1)=N[C@@H](CC(=O)OC(C)(C)C)c1nnc(C)n1-2 [NCGC00250412-19] — higher, -129
- O=S(=O)(O)c1ccc2cc(N=Nc3cc(S(=O)(=O)O)c4cccnc4c3O)ccc2c1 + Cc1sc2c(c1C)C(c1ccc(Cl)cc1)=N[C@@H](CC(=O)OC(C)(C)C)c1nnc(C)n1-2 [NCGC00250412-19] — higher, -115
- CC(=O)O[C@]1(C(C)=O)CC[C@H]2[C@@H]3C[C@H](C)C4=CC(=O)CC[C@]4(C)[C@H]3CC[C@@]21C + Cc1sc2c(c1C)C(c1ccc(Cl)cc1)=N[C@@H](CC(=O)OC(C)(C)C)c1nnc(C)n1-2 [NCGC00250412-19] — higher, -40.2
- CC(C)(C)c1nc2c3cc[nH]c(=O)c3c3cc(F)ccc3c2[nH]1 + Cc1sc2c(c1C)C(c1ccc(Cl)cc1)=N[C@@H](CC(=O)OC(C)(C)C)c1nnc(C)n1-2 [NCGC00250412-19] — higher, 20.3
- O=C1C[C@@H](c2ccc(O)cc2)Oc2cc(O)cc(O)c21 + Cc1sc2c(c1C)C(c1ccc(Cl)cc1)=N[C@@H](CC(=O)OC(C)(C)C)c1nnc(C)n1-2 [NCGC00250412-19] — higher, -84
- CCC(=O)O[C@]1(C(=O)CCl)[C@@H](C)C[C@H]2[C@@H]3CCC4=CC(=O)C=C[C@]4(C)[C@@]3(F)[C@@H](O)C[C@@]21C + Cc1sc2c(c1C)C(c1ccc(Cl)cc1)=N[C@@H](CC(=O)OC(C)(C)C)c1nnc(C)n1-2 [NCGC00250412-19] — higher, 1160
